PubChem BioAssay AID1259424 | University of Nebraska Medical Center | 2018
The whole screen tested about 14,000 reagents; this is an unselected part. 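Higher correlation or smaller distance means closer resemblance to KSR1 loss; control wells, including KSR1 knockdowns, recur on many plates.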 Not all columns of the deposit are shown. Not stated in the record: the time to read-out.

Screen: 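Rank knockdowns across the genome by resemblance to the KSR1 depletion profile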 (primary screen)
Cell system: human HCT116 colon cancer cells
Knock-down reagent: siRNA pool against human genes, 50 nM
Detection: 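Six signature mRNAs by branched-DNA multiplex assay, scaled to two housekeeping genes and non-targeting median, log2; matched to mean KSR1 knockdown profile by Pearson correlation and euclidean distance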
Scale: mean correlation with KSR1 profile: higher = expression change more like KSR1 knockdown; mean distance from KSR1 profile: higher = expression change less like KSR1 knockdown

ANTXR1 — mean correlation with KSR1 profile: 0.57; mean distance from KSR1 profile: 1.6
MS4A12 — mean correlation with KSR1 profile: -0.428; mean distance from KSR1 profile: 3.25
CNPY3 — mean correlation with KSR1 profile: -0.241; mean distance from KSR1 profile: 3.08
AKR1A1 — mean correlation with KSR1 profile: -0.199; mean distance from KSR1 profile: 2.33
POLB — mean correlation with KSR1 profile: -0.529; mean distance from KSR1 profile: 2.81
TMEM147 — mean correlation with KSR1 profile: -0.418; mean distance from KSR1 profile: 3.94
RDH8 — mean correlation with KSR1 profile: 0.492; mean distance from KSR1 profile: 1.65

A stretch of the results above, as a working copy:
MS4A12 — mean correlation with KSR1 profile: -0.428; mean distance from KSR1 profile: 3.25
CNPY3 — mean correlation with KSR1 profile: -0.241; mean distance from KSR1 profile: 3.08

The results go on:
CA3 — mean correlation with KSR1 profile: 0.148; mean distance from KSR1 profile: 1.29
ZNF174 — mean correlation with KSR1 profile: -0.478; mean distance from KSR1 profile: 2.35
GPALPP1 — mean correlation with KSR1 profile: -0.878; mean distance from KSR1 profile: 1.38
ZNF711 — mean correlation with KSR1 profile: -0.206; mean distance from KSR1 profile: 3.37
TRIM22 — mean correlation with KSR1 profile: -0.563; mean distance from KSR1 profile: 2.03
